Assay [1] deals with T1, activated (cleaved) Caspase-3 (endogenous, from mouse dorsal skin) (mouse) (UniProt P70677).
T1 sequence (looked up): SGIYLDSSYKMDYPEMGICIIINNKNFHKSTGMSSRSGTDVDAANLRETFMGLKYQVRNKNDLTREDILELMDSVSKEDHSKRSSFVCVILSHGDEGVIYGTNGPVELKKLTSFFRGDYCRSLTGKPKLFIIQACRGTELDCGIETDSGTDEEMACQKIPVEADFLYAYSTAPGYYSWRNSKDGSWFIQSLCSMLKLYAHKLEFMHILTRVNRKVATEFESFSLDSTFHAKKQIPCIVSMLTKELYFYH
Briefly: co-immunoprecipitation of endogenous proteins from mouse skin, Western blot.

By UniProt entry, the sequences of proteins in these tests, tags left out. Residues count along the entry.
UniProt P26231, residues 2-906: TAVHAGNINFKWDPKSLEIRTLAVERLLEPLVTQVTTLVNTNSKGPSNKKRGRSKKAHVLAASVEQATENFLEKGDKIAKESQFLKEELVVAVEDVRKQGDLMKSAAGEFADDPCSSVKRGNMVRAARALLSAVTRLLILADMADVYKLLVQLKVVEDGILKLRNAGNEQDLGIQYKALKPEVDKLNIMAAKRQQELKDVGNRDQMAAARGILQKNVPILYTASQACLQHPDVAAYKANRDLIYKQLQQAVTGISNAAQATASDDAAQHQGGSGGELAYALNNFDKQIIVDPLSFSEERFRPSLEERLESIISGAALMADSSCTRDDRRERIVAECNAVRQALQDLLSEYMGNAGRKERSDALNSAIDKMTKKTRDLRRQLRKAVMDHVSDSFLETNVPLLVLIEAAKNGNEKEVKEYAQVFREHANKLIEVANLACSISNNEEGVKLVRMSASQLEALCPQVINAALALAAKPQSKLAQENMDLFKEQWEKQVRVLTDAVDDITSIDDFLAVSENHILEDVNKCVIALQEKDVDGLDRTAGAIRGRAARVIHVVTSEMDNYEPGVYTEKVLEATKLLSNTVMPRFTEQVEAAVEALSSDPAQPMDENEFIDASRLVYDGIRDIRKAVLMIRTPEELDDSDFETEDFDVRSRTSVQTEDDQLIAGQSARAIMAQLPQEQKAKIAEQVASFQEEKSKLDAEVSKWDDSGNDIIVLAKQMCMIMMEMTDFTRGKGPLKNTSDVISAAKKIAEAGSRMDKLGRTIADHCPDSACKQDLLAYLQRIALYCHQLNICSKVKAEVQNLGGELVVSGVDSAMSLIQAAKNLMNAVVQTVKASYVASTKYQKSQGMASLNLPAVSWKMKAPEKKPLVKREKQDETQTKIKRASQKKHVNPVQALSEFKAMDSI

In assay [2] the target is T1, activated (cleaved) Caspase-3 (endogenous, from mouse dorsal skin) (mouse). The assay is described as follows: co-immunoprecipitation of endogenous proteins from mouse skin.
Assay [3] deals with α-Catenin (endogenous, from mouse dorsal skin) (mouse) (UniProt P26231). Briefly: co-immunoprecipitation and cleavage assays, summed up.

Results are given in words; binding and its absence hold for the method and conditions named. In cells and extracts the contact can be indirect. Some results given as binding are weak or reduced against the parent protein; the word gives no strength.

Regarding “α-Catenin (endogenous, from mouse dorsal skin) (from UniProt P26231 2-906)”, the binding entry in assay [1] and in assay [2] was “binds” in each case.

B1: activated (cleaved) Caspase-3 (endogenous, from mouse dorsal skin) (enzyme, UniProt P70677 29-277, looked up)
chain: T1 sequence (looked up)
notes: also called CP3
As to B1, the binding entry in assay [3] was “binds”.

These data come from patent publication US20200046796A1 (TECHNION RESEARCH AND DEVELOPMENT FOUNDATION, published 2020).
